Assay results from US9499599B2 (Ipsen Pharma S.A.S., priority 2005, dated 2016).

Tests used:
[1] = general procedure: Fmoc solid-phase peptide synthesis; Rink Amide MBHA resin (0.72 mmol/g); MBHA resin ([…]); HBTU/HOBt; HBTU/DIEA; DIC/HOBt; details: whole synthesis; for final HPLC purity: analytical HPLC
[2] = Fmoc solid-phase peptide synthesis; Rink Amide MBHA resin (0.72 mmol/g); MBHA resin ([…]); HBTU/HOBt; HBTU/DIEA; DIC/HOBt; details: whole synthesis, scale of the general procedure 0.25 mmol
[3] = solid-phase peptide synthesis; details: whole synthesis, scale 0.25 mmol
[4] = scale of the general procedure 0.25 mmol

(Ac-Aib^1, Aib^2,10, Glu(NH-Hexyl)^3,17)hGhrelin(1-28)-NH2
final HPLC purity ([1]; scale 0.1 mmol): 97.5%
isolated mass ([1]; scale 0.1 mmol): 27.1 mg
isolated yield ([1]; scale 0.1 mmol): 6.3%

(Aib^1,2,10, Glu(NH-hexyl)^3,17)hGhrelin(1-28)-NH2
final HPLC purity [1, 4]: 96.5%

(Cys^3(S-Decyl))hGhrelin(1-28)-NH2
final HPLC purity ([2]; analytical HPLC): 99.9%
isolated yield [2]: yield 10.2%

H-Inp-D-1-Nal-D-Trp-2-Thi-Lys-NH2
final HPLC purity ([3]; analytical HPLC): 89%
isolated mass [3]: 31.8 mg

Inp-D-2-Nal-D-Trp-Phe-Lys-NH2
final HPLC purity [1, 4]: 99%
isolated yield [1, 4]: 18.5%
